Results are given in words; binding and its absence hold for the method and conditions named. Some results given as binding are weak or reduced against the parent protein; the word gives no strength.
Target: T1, mouse Glypican-1 expressed on LLC-mGPC1-16 cells (mouse) (UniProt Q9QZF2)
T1 sequence: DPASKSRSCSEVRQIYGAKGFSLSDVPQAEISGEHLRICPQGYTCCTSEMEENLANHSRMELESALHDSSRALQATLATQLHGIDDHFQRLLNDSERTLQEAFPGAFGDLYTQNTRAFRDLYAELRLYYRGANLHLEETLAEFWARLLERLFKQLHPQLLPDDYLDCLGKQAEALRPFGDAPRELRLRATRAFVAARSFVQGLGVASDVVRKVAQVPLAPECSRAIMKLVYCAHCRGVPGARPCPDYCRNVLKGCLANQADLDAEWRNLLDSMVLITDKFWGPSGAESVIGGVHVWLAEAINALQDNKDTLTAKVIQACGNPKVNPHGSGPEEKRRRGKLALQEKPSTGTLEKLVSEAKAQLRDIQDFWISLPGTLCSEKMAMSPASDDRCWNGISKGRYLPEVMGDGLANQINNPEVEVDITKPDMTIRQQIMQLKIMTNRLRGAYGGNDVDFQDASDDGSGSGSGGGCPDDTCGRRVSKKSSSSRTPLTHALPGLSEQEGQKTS
Test: flow cytometry on LLC cells transfected with mouse GPC1

binding: binds
B1: anti-Glypican-1 antibody clone K090-01a033 (antibody, mouse IgG2a, kappa, V domains shown)
VH: QVQLKQSGPELVKPGASVKISCKASGYSFTGYYMHWVKQSPEKSLEWIGEINPSTGDTTYNQKFKAKATLTVDKSSSTAYMQLKSLTSEDSAVYYCAREKRDDGVFAYWGQGTLVTVSS
VL: DIVMSQSPKSMSMSVGERVALSCKASENVGTYVSWYQQKPEQSPKLLIYGASNRYTGVPDRFTGSGSATDFTLTISSVQAEDLADYYCGQSYSYPLTFGAGTKLELKR
